Measurements: US20250121078A1 (priority 2023, published 2025)
[ ]: non-standard residue; d: D form. dPhe(4-Cl) = N[C@H](Cc1ccc(Cl)cc1)C(=O)O; d2Nal = N[C@H](Cc1ccc2ccccc2c1)C(=O)O; dCit = NC(=O)NCCC[C@@H](N)C(=O)O; d3Pal = N[C@H](Cc1cccnc1)C(=O)O

Assay: general procedure: peptide synthesis; Rink Resin
Conditions: whole synthesis

Ac-[d2Nal][dPhe(4-Cl)][d3Pal]S[dK][dCit]LRP[dA]-NH2 (SMILES CC(=O)N[C@H](Cc1ccc2ccccc2c1)C(=O)N[C@H](Cc1ccc(Cl)cc1)C(=O)N[C@H](Cc1cccnc1)C(=O)N[C@@H](CO)C(=O)N[C@H](CCCCN)C(=O)N[C@H](CCCNC(N)=O)C(=O)N[C@@H](CC(C)C)C(=O)N[C@@H](CCCNC(=N)N)C(=O)N1CCC[C@H]1C(=O)N[C@H](C)C(N)=O)
final HPLC purity: 98%
